Results are given in words; binding and its absence hold for the method and conditions named. Some entries that bind do so weakly or less than the wild type.
T1: human PAN3 (human) (UniProt Q58A45)
T1 sequence: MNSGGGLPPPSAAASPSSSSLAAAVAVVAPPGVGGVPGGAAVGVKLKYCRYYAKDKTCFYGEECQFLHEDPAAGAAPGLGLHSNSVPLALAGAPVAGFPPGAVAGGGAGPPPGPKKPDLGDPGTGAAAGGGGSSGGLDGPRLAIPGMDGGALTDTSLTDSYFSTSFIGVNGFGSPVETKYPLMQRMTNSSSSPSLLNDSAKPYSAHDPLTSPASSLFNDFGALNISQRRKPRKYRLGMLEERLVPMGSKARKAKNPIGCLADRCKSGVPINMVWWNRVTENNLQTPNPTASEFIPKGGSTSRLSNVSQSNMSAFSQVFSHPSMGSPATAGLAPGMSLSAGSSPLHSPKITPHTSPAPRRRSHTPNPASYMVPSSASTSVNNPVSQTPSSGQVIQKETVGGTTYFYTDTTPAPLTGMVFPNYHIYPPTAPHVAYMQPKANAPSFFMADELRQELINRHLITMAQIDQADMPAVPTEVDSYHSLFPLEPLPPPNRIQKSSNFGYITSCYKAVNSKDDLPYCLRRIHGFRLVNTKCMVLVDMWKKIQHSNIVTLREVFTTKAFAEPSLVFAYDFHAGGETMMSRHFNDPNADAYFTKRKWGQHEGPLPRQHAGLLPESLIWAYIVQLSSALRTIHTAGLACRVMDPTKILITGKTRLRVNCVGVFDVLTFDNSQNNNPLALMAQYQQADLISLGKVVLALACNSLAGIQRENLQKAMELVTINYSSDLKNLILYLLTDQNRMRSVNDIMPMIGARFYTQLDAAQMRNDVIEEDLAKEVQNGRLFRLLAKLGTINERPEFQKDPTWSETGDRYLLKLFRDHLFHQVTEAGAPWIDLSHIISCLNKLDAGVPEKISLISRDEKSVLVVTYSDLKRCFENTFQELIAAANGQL

T2: Ccr4(110-837) (S. cerevisiae) (UniProt P31384)
T2 sequence: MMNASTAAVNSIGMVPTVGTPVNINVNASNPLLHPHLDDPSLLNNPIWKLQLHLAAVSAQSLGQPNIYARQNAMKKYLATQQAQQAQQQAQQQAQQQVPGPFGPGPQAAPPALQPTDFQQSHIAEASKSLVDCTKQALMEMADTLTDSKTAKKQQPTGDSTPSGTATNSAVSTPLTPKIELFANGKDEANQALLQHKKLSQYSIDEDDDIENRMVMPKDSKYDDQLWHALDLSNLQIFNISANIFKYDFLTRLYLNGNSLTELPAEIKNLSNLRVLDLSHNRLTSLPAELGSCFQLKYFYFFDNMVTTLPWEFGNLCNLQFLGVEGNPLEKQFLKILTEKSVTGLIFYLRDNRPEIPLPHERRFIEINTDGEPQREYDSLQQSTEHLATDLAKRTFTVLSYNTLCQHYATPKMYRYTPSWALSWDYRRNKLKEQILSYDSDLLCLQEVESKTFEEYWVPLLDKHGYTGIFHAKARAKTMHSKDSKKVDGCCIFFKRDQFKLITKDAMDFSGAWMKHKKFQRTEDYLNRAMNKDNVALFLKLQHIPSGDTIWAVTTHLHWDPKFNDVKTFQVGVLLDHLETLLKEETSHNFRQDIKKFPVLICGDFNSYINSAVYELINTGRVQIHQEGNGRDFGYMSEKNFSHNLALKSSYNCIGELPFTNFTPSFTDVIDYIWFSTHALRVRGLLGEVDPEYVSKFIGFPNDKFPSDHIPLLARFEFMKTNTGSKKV

B1: human PAN2cat (D1087A) (enzyme, UniProt Q504Q3 1-1202)
chain: MNFEGLDPGLAEYAPAMHSALDPVLDAHLNPSLLQNVELDPEGVALEALPVQESVHIMEGVYSELHSVVAEVGVPVSVSHFDLHEEMLWVGSHGGHATSFFGPALERYSSFQVNGSDDIRQIQSLENGILFLTKNNLKYMARGGLIIFDYLLDENEDMHSLLLTDSSTLLVGGLQNHIIEIDLNTVQETQKYAVETPGVTIMRQTNRFFFCGHTSGKVSLRDLRTFKVEHEFDAFSGSLSDFDVHGNLLAACGFSSRLTGLACDRFLKVYDLRMMRAITPLQVHVDPAFLRFIPTYTSRLAIISQSGQCQFCEPTGLANPADIFHVNPVGPLLMTFDVSASKQALAFGDSEGCVHLWTDSPEPSFNPYSRETEFALPCLVDSLPPLDWSQDLLPLSLIPVPLTTDTLLSDWPAANSAPAPRRAPPVDAEILRTMKKVGFIGYAPNPRTRLRNQIPYRLKESDSEFDSFSQVTESPVGREEEPHLHMVSKKYRKVTIKYSKLGLEDFDFKHYNKTLFAGLEPHIPNAYCNCMIQVLYFLEPVRCLIQNHLCQKEFCLACELGFLFHMLDLSRGDPCQGNNFLRAFRTIPEASALGLILADSDEASGKGNLARLIQRWNRFILTQLHQDMQELEIPQAYRGAGGSSFCSSGDSVIGQLFSCEMENCSLCRCGSETVRASSTLLFTLSYPDGSKSDKTGKNYDFAQVLKRSICLDQNTQAWCDTCEKYQPTIQTRNIRHLPDILVINCEVNSSKEADFWRMQAEVAFKMAVKKHGGEISKNKEFALADWKELGSPEGVLVCPSIEELKNVWLPFSIRMKMTKNKGLDVCNWTDGDEMQWGPARAEEEHGVYVYDLMATVVHILDSRTGGSLVAHIKVGETYHQRKEGVTHQQWYLFNDFLIEPIDKHEAVQFDMNWKVPAILYYVKRNLNSRYNLNIKNPIEASVLLAEASLARKQRKTHTTFIPLMLNEMPQIGDLVGLDAEFVTLNEEEAELRSDGTKSTIKPSQMSVARITCVRGQGPNEGIPFIDDYISTQEQVVDYLTQYSGIKPGDLDAKISSKHLTTLKSTYLKLRFLIDIGVKFVGHGLQKAFRVINLMVPKDQVLDTVYLFHMPRKRMISLRFLAWYFLDLKIQGETHDSIEDARTALQLYRKYLELSKNGTEPESFHKVLKGLYEKGRKMDWKVPEPEGQTSPKNAAVFSSVLAL
B2: Caf1(146-433) (domain or fragment, UniProt P39008 146-433)
chain: SMPPIFLPPPNYLFVRDVWKSNLYSEFAVIRQLVSQYNHVSISTEFVGTLARPIGTFRSKVDYHYQTMRANVDFLNPIQLGLSLSDANGNKPDNGPSTWQFNFEFDPKKEIMSTESLELLRKSGINFEKHENLGIDVFEFSQLLMDSGLMMDDSVTWITYHAAYDLGFLINILMNDSMPNNKEDFEWWVHQYMPNFYDLNLVYKIIQEFKNPQLQQSSQQQQQQQYSLTTLADELGLPRFSIFTTTGGQSLLMLLSFCQLSKLSMHKFPNGTDFAKYQGVIYGIDGDQ

Experiments:
human PAN3 (human) = biological target: T1, human PAN3 (human); assay: co-purification (IMAC, ion exchange, gel filtration); Pan2 and Pan3 variants co-expressed in insect cells; purified via the C-terminal deca-histidine tag on Pan3, then Mono Q and Superdex200 (20 mM HEPES pH 7.5, 200 mM NaCl)
[1] = biological target: T2, Ccr4(110-837) (S. cerevisiae); assay: co-purification (IMAC, heparin, SEC); His-tagged Ccr4(110-837)-Caf1(146-433) co-expressed in insect cells; IMAC, heparin, Superdex200 (20 mM Tris pH 7.5, 250 mM NaCl, 1 mM DTT)

binding (human PAN3 (human))	binding [1]	Binder
binds	–	B1
–	binds	B2

Reference: paper PMC6547884, “Molecular Basis for poly(A) RNP Architecture and Recognition by the Pan2-Pan3 Deadenylase” (Cell, 2019)
